Results published in patent publication US10501511B2 (SHANGHAI FIRST PEOPLE'S HOSPITAL, priority 2013, dated 2019).
Where no end group is shown, it is not given here.

Test: general procedure: peptide synthesis; FMOC-Ala-Wang-Resin
Details: whole synthesis, scale 100 μmol

RNPRGEEGGPW-OH
final purity (method not given): >95% | isolated mass: 120 mg
